{"source": "patent US11464853B2", "about": "(Auckland UniServices Limited, priority 2016, dated 2022)", "key": {"[1]": {"assay": "general procedure: Fmoc solid-phase peptide synthesis; Aminomethyl polystyrene resin, Fmoc-Val-HMPP; HATU, 4-methylmorpholine", "settings": "whole synthesis, scale 0.1 mmol"}, "[2]": {"assay": "general procedure: Fmoc solid-phase peptide synthesis; HATU, 4-methylmorpholine", "settings": "whole synthesis, based on 0.1 mmol scale, scale 0.1 mmol"}}, "note": "Where no end group is shown, it is not given here. The star is where a group is joined. tBu = CC(C)(C)*"}
{"substance": "Ac-CSKKKKNLVPC(tBu)VATV", "values": [{"measurement": "isolated mass", "setting": "[1]", "result": 74, "unit": "mg"}, {"measurement": "isolated yield", "setting": "[2]", "result": 43, "unit": "%"}]}
